# From patent publication US3968214A, “5-Methylthio-pyrimidine vasodilators” (Produits Chimiques Ugine Kuhlmann, priority 1973, dated 1976)
# At least one compound was matched to its structure with a doubt left.
# Tested on: glycemia
# Experiment: Hypoglycemiant activity, variation of glycemia after 4 days of daily oral treatment
# Assay type: in vivo, male CD rats (Charles RIVER)
# Conditions: rat, 100 mg/kg orally, daily for 4 days
# Protocol: The hypoglycemiant properties have been studied on the male CD rats (Charles RIVER) weighing 200 to 250 g, in which the glycemia is controlled before treatment and then after 4 days of daily oral treatment. The seric glucose is determined by the method of W. S. Hoffmann (J. Biol. Chem., 1937, 120, 51). Groups of 10 rats are used and the hypoglycemiant activity is expressed by the percentage variation of the average glycemia of the treated animals with respect to that of the controls. If it is necessary, the statistical significance of the difference is determined by the test of the coefficient "t" of Student.
smiles,measurement,value
"CSc1c(NCCN(C(C)C)C(C)C)nc(N(C)c2ccccc2)nc1OCCCN(C)C [Example 30, 2-N-methyl-N-phenyl-amino-4-(2'-di-isopropyl-amino)-ethylamino-5-methyl-thio-6-(dimethylaminoethyl)-methoxy-pyrimidine]",Variation of the glycemia with respect to the controls,- 26%
